Assay results from paper PMC3212078, “Atomic Force Microscopy Study of Protein–Protein Interactions in the Cytochrome CYP11A1 (P450scc)-Containing Steroid Hydroxylase System” (Nanoscale Research Letters, 2010).
No constants are given. Whether binding was seen depends on the method and setting. Some binding calls cover weakened binding; strength is not graded here.

B1: adrenodoxin reductase (enzyme, UniProt P08165 33-492)
chain: STQEQTPQICVVGSGPAGFYTAQHLLKHHSRAHVDIYEKQLVPFGLVRFGVAPDHPEVKNVINTFTQTARSDRCAFYGNVEVGRDVTVQELQDAYHAVVLSYGAEDHQALDIPGEELPGVFSARAFVGWYNGLPENRELAPDLSCDTAVILGQGNVALDVARILLTPPDHLEKTDITEAALGALRQSRVKTVWIVGRRGPLQVAFTIKELREMIQLPGTRPMLDPADFLGLQDRIKEAARPRKRLMELLLRTATEKPGVEEAARRASASRAWGLRFFRSPQQVLPSPDGRRAAGIRLAVTRLEGIGEATRAVPTGDVEDLPCGLVLSSIGYKSRPIDPSVPFDPKLGVVPNMEGRVVDVPGLYCSGWVKRGPTGVITTTMTDSFLTGQILLQDLKAGHLPSGPRPGSAFIKALLDSRGVWPVSFSDWEKLDAEEVSRGQASGKPREKLLDPQEMLRLLGH
B2: cytochrome CYP11A1 (P450scc) (enzyme, UniProt P00189 40-520)
chain: ISTKTPRPYSEIPSPGDNGWLNLYHFWREKGSQRIHFRHIENFQKYGPIYREKLGNLESVYIIHPEDVAHLFKFEGSYPERYDIPPWLAYHRYYQKPIGVLFKKSGTWKKDRVVLNTEVMAPEAIKNFIPLLNPVSQDFVSLLHKRIKQQGSGKFVGDIKEDLFHFAFESITNVMFGERLGMLEETVNPEAQKFIDAVYKMFHTSVPLLNVPPELYRLFRTKTWRDHVAAWDTIFNKAEKYTEIFYQDLRRKTEFRNYPGILYCLLKSEKMLLEDVKANITEMLAGGVNTTSMTLQWHLYEMARSLNVQEMLREEVLNARRQAEGDISKMLQMVPLLKASIKETLRLHPISVTLQRYPESDLVLQDYLIPAKTLVQVAIYAMGRDPAFFSSPDKFDPTRWLSKDKDLIHFRNLGFGWGVRQCVGRRIAELEMTLFLIHILENFKVEMQHIGDVDTIFNLILTPDKPIFLVFRPFNQDPPQA
B3: adrenodoxin (natural protein, UniProt P00257 59-186, looked up)
chain: SSSEDKITVHFINRDGETLTTKGKIGDSLLDVVVQNNLDIDGFGACEGTLACSTCHLIFEQHIFEKLEAITDEENDMLDLAYGLTDRSRLGCQICLTKAMDNMTVRVPDAVSDARESIDMGMNSSKIE
notes: adrenodoxin (Ad), recombinant; source: E. coli BL21DE3, purified after sonification

Experiments:
adrenodoxin reductase [1] = molecular target: adrenodoxin reductase (UniProt P08165); test: photon correlation spectroscopy; single proteins in 50 mM KP pH 7.4; AdR 5 μM, Ad 0.2 mM; light scattering at 90°; hydrodynamic diameter; both purified
[2] = molecular target: T1, cytochrome CYP11A1 (P450scc) (bovine, UniProt P00189 40-520); test: atomic force microscopy; ternary mixture: 10 μl each of 7.5 μM monomeric CYP11A1 (containing 1.5% Emulgen 913), Ad and AdR in 50 mM KP pH 7.4, incubated 10 min, diluted 2.5 times, adsorbed on mica; tapping mode in air; height distribution compared with those of the binary mixtures; both purified
T1 construct: The same protein was used either untreated (oligomeric, non-monomerized) or after incubation with 4-12% Emulgen 913 (monomerized); the assays tell the two states apart; also called CYP11A1mon; monomerized CYP11A1; source: isolated from bovine adrenal glands
T1 sequence (looked up): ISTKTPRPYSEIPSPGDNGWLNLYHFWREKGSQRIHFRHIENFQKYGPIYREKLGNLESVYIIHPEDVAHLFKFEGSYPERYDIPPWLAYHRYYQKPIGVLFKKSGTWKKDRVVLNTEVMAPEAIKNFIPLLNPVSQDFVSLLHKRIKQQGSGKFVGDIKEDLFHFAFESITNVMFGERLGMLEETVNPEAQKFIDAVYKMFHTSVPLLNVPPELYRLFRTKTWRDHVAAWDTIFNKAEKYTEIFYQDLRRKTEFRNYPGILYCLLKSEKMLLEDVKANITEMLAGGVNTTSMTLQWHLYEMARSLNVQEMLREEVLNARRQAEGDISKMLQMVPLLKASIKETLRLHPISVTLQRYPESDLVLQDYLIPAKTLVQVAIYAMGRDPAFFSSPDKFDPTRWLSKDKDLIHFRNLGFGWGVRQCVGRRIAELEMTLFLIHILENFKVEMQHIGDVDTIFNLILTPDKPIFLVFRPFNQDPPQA

adrenodoxin [3] = molecular target: T2, adrenodoxin (UniProt P00257); test: as above
T2 sequence: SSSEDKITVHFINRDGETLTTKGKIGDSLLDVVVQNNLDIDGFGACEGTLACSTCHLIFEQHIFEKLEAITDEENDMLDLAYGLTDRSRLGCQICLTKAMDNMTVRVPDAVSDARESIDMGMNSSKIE

adrenodoxin reductase [4] = molecular target: adrenodoxin reductase (UniProt P08165); test: atomic force microscopy; single proteins: 5 μl of 1 μM Ad or 1 μM AdR in 50 mM KP pH 7.4 on freshly cleaved mica; tapping mode in air; height distribution; both purified
adrenodoxin [5] = molecular target: T2, adrenodoxin; test: photon correlation spectroscopy; single proteins in 50 mM KP pH 7.4; AdR 5 μM, Ad 0.2 mM; light scattering at 90°; hydrodynamic diameter; both purified
adrenodoxin [6] = molecular target: T2, adrenodoxin; test: atomic force microscopy; single proteins: 5 μl of 1 μM Ad or 1 μM AdR in 50 mM KP pH 7.4 on freshly cleaved mica; tapping mode in air; height distribution; both purified

Binder	binding (adrenodoxin reductase [1])	binding [2]	binding (adrenodoxin [3])	binding (adrenodoxin reductase [4])	binding (adrenodoxin [5])	binding (adrenodoxin [6])
B1	no binding (tested: 5 μM)	binds	binds	no binding (tested: 1 μM)		
B2			binds			
B3					no binding (tested: 0.2 mM)	no binding (tested: 1 μM)
